{"sequences": {"note": "Amino acid sequences for entries named in this document (tags omitted). A change or cut given only in a name is not applied to a line headed by its entry.", "UniProt Q02732": "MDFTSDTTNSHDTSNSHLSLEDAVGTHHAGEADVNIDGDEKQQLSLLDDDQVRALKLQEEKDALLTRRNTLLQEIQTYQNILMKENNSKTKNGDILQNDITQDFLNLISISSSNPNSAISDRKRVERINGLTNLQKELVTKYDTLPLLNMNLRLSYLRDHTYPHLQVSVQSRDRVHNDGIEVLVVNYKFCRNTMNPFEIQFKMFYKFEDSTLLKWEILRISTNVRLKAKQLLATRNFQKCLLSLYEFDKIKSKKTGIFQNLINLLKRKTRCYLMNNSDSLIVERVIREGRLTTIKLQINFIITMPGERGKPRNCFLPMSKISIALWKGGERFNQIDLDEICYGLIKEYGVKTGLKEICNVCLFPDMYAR", "UniProt Q06675": "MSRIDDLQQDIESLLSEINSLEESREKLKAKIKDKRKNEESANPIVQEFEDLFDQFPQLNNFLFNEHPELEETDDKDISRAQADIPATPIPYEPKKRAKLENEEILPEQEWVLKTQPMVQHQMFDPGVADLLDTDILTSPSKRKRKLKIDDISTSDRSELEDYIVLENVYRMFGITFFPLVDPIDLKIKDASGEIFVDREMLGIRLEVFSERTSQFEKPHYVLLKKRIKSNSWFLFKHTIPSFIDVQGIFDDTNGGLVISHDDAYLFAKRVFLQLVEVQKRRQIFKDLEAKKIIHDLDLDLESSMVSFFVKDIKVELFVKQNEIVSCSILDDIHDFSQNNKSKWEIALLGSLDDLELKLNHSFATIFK"}, "source": "paper doi:10.1101/444570", "about": "(bioRxiv, 2018)", "molecules": {"B1": {"name": "Ipl1 (enzyme, UniProt P38991 1-367)", "chain": "MQRNSLVNIKLNANSPSKKTTTRPNTSRINKPWRISHSPQQRNPNSKIPSPVREKLNRLPVNNKKFLDMESSKIPSPIRKATSSKMIHENKKLPKFKSLSLDDFELGKKLGKGKFGKVYCVRHRSTGYICALKVMEKEEIIKYNLQKQFRREVEIQTSLNHPNLTKSYGYFHDEKRVYLLMEYLVNGEMYKLLRLHGPFNDILASDYIYQIANALDYMHKKNIIHRDIKPENILIGFNNVIKLTDFGWSIINPPENRRKTVCGTIDYLSPEMVESREYDHTIDAWALGVLAFELLTGAPPFEEEMKDTTYKRIAALDIKMPSNISQDAQDLILKLLKYDPKDRMRLGDVKMHPWILRNKPFWENKRL"}}, "key": {"[1]": {"target": "T1, Sli15-P4-2xStrep/Ipl1 (phosphorylation-mimicking mutant P4) (S. cerevisiae (budding yeast)) (UniProt P38283+P38991)", "T1 sequence 1": "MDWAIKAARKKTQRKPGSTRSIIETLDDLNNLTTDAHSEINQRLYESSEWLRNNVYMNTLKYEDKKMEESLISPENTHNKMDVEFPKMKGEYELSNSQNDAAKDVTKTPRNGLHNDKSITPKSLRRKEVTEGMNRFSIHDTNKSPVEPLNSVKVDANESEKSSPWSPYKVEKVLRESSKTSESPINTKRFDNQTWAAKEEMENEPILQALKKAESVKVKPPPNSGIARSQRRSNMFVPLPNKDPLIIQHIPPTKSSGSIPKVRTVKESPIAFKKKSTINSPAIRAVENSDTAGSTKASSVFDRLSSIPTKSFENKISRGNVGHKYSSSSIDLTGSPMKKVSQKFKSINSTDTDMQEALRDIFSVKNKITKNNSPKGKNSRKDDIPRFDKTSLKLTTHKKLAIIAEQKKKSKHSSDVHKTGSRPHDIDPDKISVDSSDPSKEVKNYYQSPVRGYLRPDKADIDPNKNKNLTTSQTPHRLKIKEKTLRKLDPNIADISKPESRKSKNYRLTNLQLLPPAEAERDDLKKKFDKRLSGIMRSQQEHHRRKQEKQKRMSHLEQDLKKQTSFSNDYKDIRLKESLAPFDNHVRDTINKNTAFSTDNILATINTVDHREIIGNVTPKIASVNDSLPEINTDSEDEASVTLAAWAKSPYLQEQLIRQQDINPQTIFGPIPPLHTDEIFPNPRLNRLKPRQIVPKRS", "T1 sequence 2": "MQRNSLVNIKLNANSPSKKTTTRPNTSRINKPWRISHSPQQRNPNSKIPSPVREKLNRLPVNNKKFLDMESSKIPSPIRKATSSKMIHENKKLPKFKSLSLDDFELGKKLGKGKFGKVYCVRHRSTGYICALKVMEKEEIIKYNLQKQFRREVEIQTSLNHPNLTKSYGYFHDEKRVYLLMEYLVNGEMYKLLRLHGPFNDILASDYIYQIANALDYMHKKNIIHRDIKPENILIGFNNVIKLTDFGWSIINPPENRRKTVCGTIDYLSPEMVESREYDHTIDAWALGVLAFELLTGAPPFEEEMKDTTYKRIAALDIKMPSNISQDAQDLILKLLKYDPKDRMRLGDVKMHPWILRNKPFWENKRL", "assay": "pull-down"}, "[2]": {"target": "T2, Sli15∆N2-500-2xStrep/Ipl1 (S. cerevisiae (budding yeast)) (UniProt P38283+P38991)", "T2 sequence 1": "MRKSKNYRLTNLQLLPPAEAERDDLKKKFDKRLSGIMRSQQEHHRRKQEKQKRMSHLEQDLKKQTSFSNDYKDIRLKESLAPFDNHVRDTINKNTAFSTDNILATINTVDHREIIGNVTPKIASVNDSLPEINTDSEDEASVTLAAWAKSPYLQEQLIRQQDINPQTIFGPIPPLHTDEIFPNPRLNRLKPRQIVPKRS", "T2 sequence 2": "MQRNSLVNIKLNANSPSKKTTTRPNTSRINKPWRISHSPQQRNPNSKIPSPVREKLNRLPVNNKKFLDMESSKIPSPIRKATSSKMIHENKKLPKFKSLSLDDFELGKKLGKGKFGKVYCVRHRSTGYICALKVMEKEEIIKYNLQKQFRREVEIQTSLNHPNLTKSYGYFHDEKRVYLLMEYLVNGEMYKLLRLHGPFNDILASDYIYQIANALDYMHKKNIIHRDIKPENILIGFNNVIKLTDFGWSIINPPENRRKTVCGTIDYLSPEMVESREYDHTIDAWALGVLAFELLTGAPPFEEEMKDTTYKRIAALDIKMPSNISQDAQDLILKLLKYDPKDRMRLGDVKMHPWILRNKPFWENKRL", "assay": "pull-down"}, "[3]": {"target": "T3, Sli15-2xStrep/Ipl1 (wild type, not phosphorylated) (S. cerevisiae (budding yeast)) (UniProt P38283+P38991)", "T3 sequence 1": "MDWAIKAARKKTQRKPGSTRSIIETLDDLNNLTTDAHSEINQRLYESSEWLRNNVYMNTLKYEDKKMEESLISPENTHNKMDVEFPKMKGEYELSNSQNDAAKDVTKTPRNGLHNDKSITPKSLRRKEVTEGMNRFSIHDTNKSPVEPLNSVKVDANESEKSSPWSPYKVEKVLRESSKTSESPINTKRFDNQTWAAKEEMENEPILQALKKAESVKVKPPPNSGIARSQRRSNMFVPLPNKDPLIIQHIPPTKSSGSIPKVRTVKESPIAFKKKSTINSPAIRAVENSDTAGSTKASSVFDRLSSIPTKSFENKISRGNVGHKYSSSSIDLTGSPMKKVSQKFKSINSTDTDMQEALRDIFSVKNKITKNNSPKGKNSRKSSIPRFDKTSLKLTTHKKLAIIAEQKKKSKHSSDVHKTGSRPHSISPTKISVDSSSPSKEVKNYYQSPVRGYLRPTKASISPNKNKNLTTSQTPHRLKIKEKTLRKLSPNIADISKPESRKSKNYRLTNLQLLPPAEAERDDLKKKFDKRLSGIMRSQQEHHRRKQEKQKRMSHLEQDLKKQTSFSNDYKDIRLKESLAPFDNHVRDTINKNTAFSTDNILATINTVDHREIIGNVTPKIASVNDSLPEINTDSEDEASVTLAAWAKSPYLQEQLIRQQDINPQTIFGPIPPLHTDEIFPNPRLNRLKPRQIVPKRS", "T3 sequence 2": "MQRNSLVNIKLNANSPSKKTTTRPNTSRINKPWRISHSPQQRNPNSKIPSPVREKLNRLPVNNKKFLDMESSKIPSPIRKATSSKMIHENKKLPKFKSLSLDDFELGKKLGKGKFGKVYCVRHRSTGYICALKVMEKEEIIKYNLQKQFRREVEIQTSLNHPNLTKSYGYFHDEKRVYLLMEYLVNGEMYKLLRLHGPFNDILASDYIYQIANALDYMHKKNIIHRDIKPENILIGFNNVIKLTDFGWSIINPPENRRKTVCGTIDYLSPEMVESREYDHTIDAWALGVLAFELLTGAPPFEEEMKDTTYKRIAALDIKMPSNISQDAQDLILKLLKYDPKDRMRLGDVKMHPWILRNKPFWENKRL", "assay": "pull-down"}, "[4]": {"target": "T4, Sli15 (S. cerevisiae (budding yeast)) (UniProt P38283)", "T4 sequence": "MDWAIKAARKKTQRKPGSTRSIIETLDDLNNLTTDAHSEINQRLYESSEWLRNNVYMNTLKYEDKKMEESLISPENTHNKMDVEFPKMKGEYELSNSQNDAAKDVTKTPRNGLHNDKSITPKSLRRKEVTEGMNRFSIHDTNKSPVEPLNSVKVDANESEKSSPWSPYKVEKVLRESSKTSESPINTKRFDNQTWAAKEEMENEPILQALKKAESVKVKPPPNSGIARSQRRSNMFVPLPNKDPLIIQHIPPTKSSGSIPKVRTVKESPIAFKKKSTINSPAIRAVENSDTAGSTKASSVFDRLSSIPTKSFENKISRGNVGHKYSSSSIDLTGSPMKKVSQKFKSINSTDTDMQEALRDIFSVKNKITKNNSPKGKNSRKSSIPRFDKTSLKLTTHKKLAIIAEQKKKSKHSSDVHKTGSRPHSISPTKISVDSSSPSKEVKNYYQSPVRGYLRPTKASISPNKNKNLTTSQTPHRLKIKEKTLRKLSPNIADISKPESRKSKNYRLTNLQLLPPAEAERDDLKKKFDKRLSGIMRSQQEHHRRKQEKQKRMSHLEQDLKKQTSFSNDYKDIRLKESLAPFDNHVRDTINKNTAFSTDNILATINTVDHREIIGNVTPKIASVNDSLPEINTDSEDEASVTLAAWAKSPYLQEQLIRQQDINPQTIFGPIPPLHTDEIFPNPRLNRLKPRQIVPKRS", "assay": "co-purification of co-expressed subunits"}}, "note": "No constants are given. Whether binding was seen depends on the method and setting. Some binding calls cover weakened binding; strength is not graded here."}
{"molecule": "Ctf19/Mcm21 heterodimer (wild type) (from UniProt Q02732;Q06675) (complex)", "values": [{"measurement": "binding", "setting": "[1]", "value": "no binding"}, {"measurement": "binding", "setting": "[2]", "value": "no binding"}]}
{"molecule": "Ctf19ΔC/Mcm21 (from UniProt Q02732;Q06675) (complex)", "values": [{"measurement": "binding", "setting": "[3]", "value": "no binding (tested: 2-fold molar excess)"}]}
{"molecule": "B1", "values": [{"measurement": "binding", "setting": "[4]", "value": "binds"}]}
